Measured values taken from paper PMC12071331.
No constants are given. Whether binding was seen depends on the method and setting. In cells and extracts the contact can be indirect. Some entries that bind do so weakly or less than the wild type.

Amino acid sequences for entries named in this document (tags omitted).
UniProt P35222: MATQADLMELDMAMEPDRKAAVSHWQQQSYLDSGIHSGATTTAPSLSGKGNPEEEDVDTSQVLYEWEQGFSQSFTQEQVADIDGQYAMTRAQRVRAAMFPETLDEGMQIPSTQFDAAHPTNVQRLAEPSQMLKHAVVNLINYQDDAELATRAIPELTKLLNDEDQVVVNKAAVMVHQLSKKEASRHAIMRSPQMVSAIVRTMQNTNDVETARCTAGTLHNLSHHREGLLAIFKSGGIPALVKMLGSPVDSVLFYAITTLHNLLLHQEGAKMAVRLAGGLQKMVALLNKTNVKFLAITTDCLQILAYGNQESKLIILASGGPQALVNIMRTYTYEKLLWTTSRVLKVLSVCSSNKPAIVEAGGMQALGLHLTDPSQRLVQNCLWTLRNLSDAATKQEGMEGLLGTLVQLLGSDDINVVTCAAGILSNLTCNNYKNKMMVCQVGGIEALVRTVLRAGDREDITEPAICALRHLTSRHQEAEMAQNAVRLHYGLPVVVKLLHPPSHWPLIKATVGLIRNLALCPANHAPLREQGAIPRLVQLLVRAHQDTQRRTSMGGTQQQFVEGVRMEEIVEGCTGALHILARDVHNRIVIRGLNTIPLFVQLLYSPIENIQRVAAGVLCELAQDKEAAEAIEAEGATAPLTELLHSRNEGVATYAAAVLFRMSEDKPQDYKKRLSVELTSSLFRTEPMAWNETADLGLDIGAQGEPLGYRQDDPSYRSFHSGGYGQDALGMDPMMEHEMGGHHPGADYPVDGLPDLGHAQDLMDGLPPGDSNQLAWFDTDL
UniProt O15169: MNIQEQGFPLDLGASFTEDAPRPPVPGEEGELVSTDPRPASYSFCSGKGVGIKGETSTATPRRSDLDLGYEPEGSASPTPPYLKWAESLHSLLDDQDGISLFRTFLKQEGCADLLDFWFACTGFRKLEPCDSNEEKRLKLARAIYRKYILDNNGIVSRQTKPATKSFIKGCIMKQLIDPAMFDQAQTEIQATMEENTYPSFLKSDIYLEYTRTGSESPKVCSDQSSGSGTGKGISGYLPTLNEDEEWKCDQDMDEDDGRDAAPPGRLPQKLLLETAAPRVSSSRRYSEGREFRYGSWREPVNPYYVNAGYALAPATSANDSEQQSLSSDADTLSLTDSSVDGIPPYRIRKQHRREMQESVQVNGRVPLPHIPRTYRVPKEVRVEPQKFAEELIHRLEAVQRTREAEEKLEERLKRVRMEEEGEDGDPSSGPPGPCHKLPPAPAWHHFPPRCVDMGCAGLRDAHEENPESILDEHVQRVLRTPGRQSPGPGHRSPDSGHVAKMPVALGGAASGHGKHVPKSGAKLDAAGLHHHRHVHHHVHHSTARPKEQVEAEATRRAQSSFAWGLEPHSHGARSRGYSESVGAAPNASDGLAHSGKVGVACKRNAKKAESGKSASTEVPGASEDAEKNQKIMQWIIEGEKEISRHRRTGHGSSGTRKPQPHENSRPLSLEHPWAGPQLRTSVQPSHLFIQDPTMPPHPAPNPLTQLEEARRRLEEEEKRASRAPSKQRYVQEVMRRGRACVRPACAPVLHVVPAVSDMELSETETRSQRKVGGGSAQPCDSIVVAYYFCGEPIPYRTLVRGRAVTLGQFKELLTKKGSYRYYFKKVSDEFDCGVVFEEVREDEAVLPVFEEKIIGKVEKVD

Biological target: β-catenin (human (endogenous in Caco2)) (UniProt P35222)
Experiment: co-IP; Caco2 cell lysates precleared with protein A/G beads, incubated with β-catenin antibody at 4 °C overnight, protein A/G beads 1 h, immunoblot; cells untreated, treated with 10 μM 5-HT for 24 h, or pretreated with 20 μM SB269970 (HTR7 antagonist) for 2 h and then 5-HT

- binding: binds
Substance: Axin1 (from UniProt O15169 1-862)
